Source: patent US20060068386A1, “Complete genome and protein sequence of the hyperthermophile methanopyrus kandleri av19 and monophyly of archael methanogens and methods of use thereof” (priority 2002, published 2006)

B1: Pfu polymerase: whole size Pfu polymerase (protein, UniProt P61875 1-775, looked up)
chain: MILDVDYITEEGKPVIRLFKKENGKFKIEHDRTFRPYIYALLRDDSKIEEVKKITGERHGKIVRIVDVEKVEKKFLGKPITVWKLYLEHPQDVPTIREKVREHPAVVDIFEYDIPFAKRYLIDKGLIPMEGEEELKILAFDIETLYHEGEEFGKGPIIMISYADENEAKVITWKNIDLPYVEVVSSEREMIKRFLRIIREKDPDIIVTYNGDSFDFPYLAKRAEKLGIKLTIGRDGSEPKMQRIGDMTAVEVKGRIHFDLYHVITRTINLPTYTLEAVYEAIFGKPKEKVYADEIAKAWESGENLERVAKYSMEDAKATYELGKEFLPMEIQLSRLVGQPLWDVSRSSTGNLVEWFLLRKAYERNEVAPNKPSEEEYQRRLRESYTGGFVKEPEKGLWENIVYLDFRALYPSIIITHNVSPDTLNLEGCKNYDIAPQVGHKFCKDIPGFIPSLLGHLLEERQKIKTKMKETQDPIEKILLDYRQKAIKLLANSFYGYYGYAKARWYCKECAESVTAWGRKYIELVWKELEEKFGFKVLYIDTDGLYATIPGGESEEIKKKALEFVKYINSKLPGLLELEYEGFYKRGFFVTKKRYAVIDEEGKVITRGLEIVRRDWSEIAKETQARVLETILKHGDVEEAVRIVKEVIQKLANYEIPPEKLAIYEQITRPLHEYKAIGPHVAVAKKLAAKGVKIKPGMVIGYIVLRGDGPISNRAILAEEYDPKKHKYDAEYYIENQVLPAVLRILEGFGYRKEDLRYQKTRQVGLTSWLNIKKS
modifications: full-length

System: DNA duplex of FIG. 16 (PTJ)
Assay: Initial rates of primer extension reactions in salts (inhibition of polymerases and chimeras by NaCl, KCl, K-Glu)
Type: biochemical
Details: for α (K-Glu), cooperativity parameter: inhibition by K-Glu, entries with * analysed by Eq. 3; for α (NaCl), cooperativity parameter: inhibition by NaCl
Description: The polymerase activities of the four chimeras were tested by measuring initial rates of primer extension reactions. The reactions were carried out at low concentrations of substrate, when the initial rates were proportional both to total protein and PTJ concentrations. When [PTJ] is much less than Kmapp, the initial rate is determined as in Equation 1: v1=kapp/Kmapp*[Et]*[PTJ]1 Eq. 1 • where Kmapp and kapp are apparent Michaelis and catalytic constants, respectively.
The concentrations of sodium chloride (NaCl), potassium chloride (KCl) and potassium glutamate (K-Glu) were varied to assess inhibition of the Stoffel fragment and KlenTaq, and the four chimeras by salts, and to estimate the effects of the HhH domains.
Experimental values of initial polymerization rates were analyzed by nonlinear regression analysis using Equation 2: [formula] where v and v0 are initial primer extension rates with and without salt, respectively, Ki is the apparent inhibition constant; and α is the cooperativity parameter.
In Table 2, to take into account the activation of Pfu polymerase and the PfuC2 hybrid by KGlu (data entries marked with an asterisk (*), the experimental values of initial polymerization rates were analyzed by nonlinear regression using the Equation 3: [formula]
where v and v0 are initial primer extension rates with and without salt, respectively; Ki is an apparent inhibition constant, α is a parameter of cooperativity, β and γ are parameters of activation. Since γ≅2, it is likely that two ions of Glu^− bind to the Pfu polymerase catalytic domain without inhibiting the polymerase activity.

| Molecule | α (K-Glu), cooperativity parameter | α (NaCl), cooperativity parameter |
| --- | --- | --- |
| Taq Polymerase: DNA polymerase from Thermus aquaticus [reference compound] | 4.45 ± 0.3 | 3.24 ± 0.5 |
| B1 | 3.24 ± 0.2 | 2.39 ± 0.1 |
